Among all 320,000 compounds or so, about 22,000 (6.9%) were called active. The inconclusive results got no clear call from the source; some entries with a clear call stand among them for comparison. Calls follow the shape of the dose curve; as a rule, active = well fitted inhibition curve with a large enough effect; inconclusive = small, poorly fitted or top-dose-only effect, or another doubt; inactive = no such curve, though single readings can be large or run the other way. Potencies beside an inconclusive call are fits to weak or partial responses and may not hold up.
Experiment: Primary qHTS for delayed death inhibitors of the malarial parasite plastid, 96 hour incubation
Conditions: P. falciparum luciferase reporter growth; series mostly up to 28.7 µM
How it was run: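 Infected RBCs, 2% Hct / 0.05% parasitemia final; luciferase-reporter P. falciparum; cpd 96 h, 37 C, 5% CO2; luciferase detection reagent; luminescence.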
Potency is read from the fitted curve at half-maximal effect.

SMILES	Potency
CC(OC(=O)c1ccc(Cl)c(S(=O)(=O)N2CCOCC2)c1)C(=O)Nc1ccc(S(N)(=O)=O)cc1 (centres undefined)	inactive
O=C(NCc1ccc(F)cc1)C1CCCN(S(=O)(=O)c2cccc3nonc23)C1 (centres undefined)	inconclusive: 4.65 µM [inhibitor, partial curve]
Oc1ccc(C2NCc3ccccc3-n3cccc32)cc1Cl (centres undefined)	inactive
Cc1ccc(C(=O)NC23CC4CC(CC(C4)C2)C3)c(Cl)c1	inconclusive: 18.5 µM [inhibitor, single point]
CCCCNC(=O)COC(=O)c1ccc(F)cc1Cl	inactive
CC1CN(c2ncnc3c2cnn3-c2ccc(Cl)cc2)CC(C)O1 (centres undefined)	inactive
CCc1ccc(CNC(=O)Cn2nc(-c3ccccc3)ccc2=O)cc1	inconclusive: 10.4 µM [inhibitor, single point]
Cc1ccc(NC(=O)Cc2nnc(SCC(=O)Nc3ccccc3)n2C)cc1	inactive
COc1ccc(CCN2CC(C(=O)N(C)Cc3cccnc3)CC2=O)cc1OC (centres undefined)	inactive
COC(=O)Cn1c2nc3ccccc3nc2c2cccc(C)c21	inconclusive: 18.5 µM [inhibitor, single point]
CCCCC#Cc1ccccc1CC(=O)Nc1ccccc1	inconclusive: 11.7 µM [inhibitor, single point]
CSc1nc2sc3c(c2c(=O)n1C)CCCC3	inactive
Cc1ccc(O)c(C2=Nc3ccccc3N=C(c3ccc([N+](=O)[O-])cc3)C2)c1	inconclusive: 4.15 µM [inhibitor, single point]
C#CCOc1ccc(/C=N/NC(=O)c2cccnc2)cc1OCC	inactive
Cc1ccc(C(=O)c2c3ccc(C(F)(F)F)cc3[n+]([O-])n2CCCN)cc1	inconclusive: 10.4 µM [inhibitor, single point]
Cc1sc2ncnc(OCC(=O)NCc3cccs3)c2c1C	inconclusive: 3.29 µM [inhibitor, partial curve, poor fit]
COc1ccc(/C=N/NC(=O)C(=O)/C=C2\NC3(CCCC3)Cc3ccccc32)cc1	inconclusive: 11.7 µM [inhibitor, single point]
Brc1ccc(/C=N/Nc2ccccn2)cc1	inconclusive: 3.7 µM [inhibitor, full curve, poor fit]
CCOc1ncccc1C(=O)Nc1cc(S(=O)(=O)N2CCCCC2)ccc1Cl	active: 0.828 µM
COc1ccccc1CNC(=O)C(=O)NCC1OCCN1S(=O)(=O)c1ccccc1 (centres undefined)	inconclusive: 14.7 µM [inhibitor, single point]
CCN(CC)C(CNS(=O)(=O)c1ccc(Cl)cc1)c1ccccc1 (centres undefined)	inconclusive: 18.5 µM [inhibitor, single point]
CC1CCC(C(C)C)C(OC(=O)C[n+]2cc(-c3ccc(Cl)cc3)n3c2CCCCC3)C1 (centres undefined)	active: 2.94 µM
Cc1cccc(-n2c(C)nc3cc(C(=O)N4CCC5(CC4)OCCO5)ccc32)c1	inconclusive: 9.28 µM [inhibitor, single point]

SMILES	Potency
COCCn1c(SCC(=O)Nc2ccc3c(c2)CCC3)nc2ccccc2c1=O	inactive
CCN(CC)c1ccc(C=C(c2nnnn2-c2ccccc2)c2nnnn2-c2ccccc2)cc1	inactive
C/C(=N\NC(=O)CC#N)c1cc2ccccc2oc1=O	inconclusive: 18.5 µM [inhibitor, single point]
Cc1ccc(C2=NC(C(F)(F)F)(C(F)(F)F)c3c(n(-c4ccc(F)cc4)c(=O)[nH]c3=O)N2)cc1	inconclusive: 5.22 µM [inhibitor, partial curve, poor fit]
COc1ccc(Cl)cc1N(CC(=O)Nc1ccc2c(c1)OCO2)S(C)(=O)=O	inconclusive: 10.4 µM [inhibitor, partial curve, poor fit]
COc1cc(/C=N/OCC(=O)Nc2ccc(OC(F)F)cc2)ccc1OCc1ccccc1	inactive
CCN(C(=O)CSc1ncccn1)c1c(N)n(Cc2ccccc2)c(=O)[nH]c1=O	inactive
O=C(CSc1ccc(-c2ccccc2)nn1)NCc1ccco1	inconclusive: 13.1 µM [inhibitor, single point]
Cc1ccc(S(=O)(=O)NC2c3cccc4cccc(c34)C2Sc2ncccn2)cc1 (centres undefined)	inconclusive: 10.4 µM [inhibitor, partial curve, poor fit]
COc1ccc(-c2nn(-c3ccccc3C)cc2CNCCc2cnc[nH]2)cc1F	inconclusive: 11.7 µM [inhibitor, partial curve]
COc1ccc(NC(=O)CN(C)C(=O)/C=C/c2cn(-c3ccccc3)nc2-c2cccs2)cc1	inconclusive: 18.5 µM [inhibitor, single point]
COCc1c(C(=O)NCC2COc3ccccc3O2)oc2ccccc12 (centres undefined)	inconclusive: 0.0738 µM [inhibitor, full curve]
CN(C(=O)c1cc(S(=O)(=O)N2CCc3ccccc32)cn1C)C1CCCCC1	inconclusive: 18.5 µM [inhibitor, single point]
Cc1cc(Cl)ccc1NC(=O)c1ccc2c(c1)OCO2	inactive
CC(C)[C@H](NC(=O)N1CCn2c1nc1ccccc12)C(=O)NCCc1ccccc1	inconclusive: 18.5 µM [inhibitor, single point]
COc1ccccc1CNC(=O)[C@H](C)NC(=O)C1CCN(C(=O)[C@@H]2CCCN2C(=O)OC(C)(C)C)CC1	inconclusive: 18.5 µM [inhibitor, single point]
CSc1nc(N)c2c3c(sc2n1)COC(C(C)C)C3 (centres undefined)	active: 5.22 µM
Cc1nn(-c2ccccc2)c(Cl)c1/C=N/NC(=O)c1ccnn1C	inactive
O=C(Nc1ccc(N2CCN(Cc3ccccc3)CC2)cc1)c1cccnc1	inconclusive: 9.28 µM [inhibitor, partial curve, poor fit]
COc1ccc(C2C3=C(CC(C)(C)CC3=O)Oc3ncn(Cc4ccco4)c(=N)c32)cc1 (centres undefined)	inconclusive: 18.5 µM [inhibitor, single point]
O=C(c1cc(=O)[nH]c2ccccc12)N(Cc1nnc(-c2ccccc2Cl)o1)C1CC1	inconclusive: 13.1 µM [inhibitor, partial curve]
O=C1C2C3C=CC(CO)(O3)C2C(=O)N1c1ccc(-c2ccccc2)cc1 (centres undefined)	inactive
C=C[C@@H]1c2cc(C)ccc2N(S(=O)(=O)c2ccc(C)cc2)[C@H](c2ccccc2)C1(C#N)C#N	inconclusive: 3.29 µM [inhibitor, single point]

SMILES	Potency
COc1ccc(Br)cc1/C=N/N1CCN(Cc2ccccc2)CC1	inactive
CCOc1ccc(C(C)NC(=S)NCc2ccc(F)cc2)cc1 (centres undefined)	inactive
CCc1nc2ccc(C(=O)N(CC)CC(=O)Nc3c(F)cccc3F)cc2nc1CC	inconclusive: 10.4 µM [inhibitor, single point]
CCOC(=O)N1CCN(S(=O)(=O)N2CCCC(C(=O)NCCCN3CC(C)CC(C)C3)C2)CC1 (centres undefined)	inactive
Cc1nnc(SCC(=O)Nc2cccc(Br)c2)s1	inconclusive: 7.38 µM [inhibitor, single point]
COc1cc2cc(CCCOC(=O)c3ccc(C(F)(F)F)cc3)oc(=O)c2cc1OC	inactive
CCN(CC)CC(=O)N1CCCC(C(=O)c2ccccc2OC)C1 (centres undefined)	inconclusive: 9.28 µM [inhibitor, partial curve, poor fit]
CNc1nc(SCc2ccccc2Cl)nc2c1CCCC2	active: 14.7 µM
FC(F)(F)c1cccc(NC(=S)NNC(=S)Nc2cccc(C(F)(F)F)c2)c1	inconclusive: 16.5 µM [inhibitor, single point]
Cc1ccc(-n2cnc3cc(NCc4cccs4)ccc32)cc1	inconclusive: 1.47 µM [inhibitor, partial curve, poor fit]
CC(C)CC(=O)OCC(=O)Nc1ccccc1Sc1ccccc1	inactive
Cc1cccc(C)c1NC(=O)c1cc(S(=O)(=O)N2CCOCC2)cn1C	inconclusive: 0.208 µM [inhibitor, full curve, poor fit]
CCOC(CNC(=O)CN1C(=O)COc2ccc(S(=O)(=O)N3CCCC3)cc21)OCC	inconclusive: 0.465 µM [inhibitor, partial curve, poor fit]
Cc1cccnc1NC(=O)CN1C(=O)c2ccccc2S1(=O)=O	inactive
Cc1ccc(S(=O)(=O)NC(CC(=O)O)c2ccccc2)c(C)c1 (centres undefined)	inconclusive: 10.4 µM [inhibitor, partial curve, poor fit]
O=C(N1CCC(O)(c2cccnc2)CC1)C12CC3CC(CC(C3)C1)C2	inconclusive: 0.0465 µM [inhibitor, full curve]
CCOC(=O)C1(Cc2cccc(OC)c2)CCN(Cc2ccc(OC)c(O)c2)CC1	inconclusive: 18.5 µM [inhibitor, single point]
Cc1ccc(NC(=O)c2ccc3c(=O)n4c(nc3c2)CCC4)cc1S(=O)(=O)N(C)C	inconclusive: 7.38 µM [inhibitor, partial curve, poor fit]
COc1ccc(CN2CC(C(=O)NCCc3ccc(C)cc3)CC2=O)cc1 (centres undefined)	inactive
CC(=O)Nc1cccc(N2C(=O)CC(Cc3ccccc3)C2=O)c1 (centres undefined)	inconclusive: 13.1 µM [inhibitor, single point]
Cc1noc(C)c1C(=O)Nc1nc(-c2ccc(F)cc2)cs1	inactive
COc1ccccc1N1CCN(S(=O)(=O)c2ccc3c(c2)oc(=O)n3C)CC1	inconclusive: 11.7 µM [inhibitor, single point]
Nc1c(C(=O)NCc2ccco2)c2nc3ccccc3nc2n1Cc1ccccc1	inconclusive: 18.5 µM [inhibitor, single point]

Fetched by structure from the list above, three records:
SMILES	Potency
Cc1cccc(-n2c(C)nc3cc(C(=O)N4CCC5(CC4)OCCO5)ccc32)c1	inconclusive: 9.28 µM [inhibitor, single point]
Cc1ccc(C2=NC(C(F)(F)F)(C(F)(F)F)c3c(n(-c4ccc(F)cc4)c(=O)[nH]c3=O)N2)cc1	inconclusive: 5.22 µM [inhibitor, partial curve, poor fit]
CN(C(=O)c1cc(S(=O)(=O)N2CCc3ccccc32)cn1C)C1CCCCC1	inconclusive: 18.5 µM [inhibitor, single point]
